Results from patent publication US20230172979.

Experiments:
CD30 (TNFRSF8) [1] = target: T1, CD30 (TNFRSF8) (UniProt P28908); test: activity in cells; conditions: 3' double C18 hydrocarbon chain lipophilic anchor; aptamer-anchored NK92: killing of CD30+ lymphoma cells up 44, 62, 168% at E/T 3:1, 1:1, 1:3 vs parental NK92; no enhancement on CD30-negative cells; protein on the cell surface; single-stranded DNA; variant of CD30-specific ssDNA aptamer; dose not given here
T1 sequence (looked up, limits assumed): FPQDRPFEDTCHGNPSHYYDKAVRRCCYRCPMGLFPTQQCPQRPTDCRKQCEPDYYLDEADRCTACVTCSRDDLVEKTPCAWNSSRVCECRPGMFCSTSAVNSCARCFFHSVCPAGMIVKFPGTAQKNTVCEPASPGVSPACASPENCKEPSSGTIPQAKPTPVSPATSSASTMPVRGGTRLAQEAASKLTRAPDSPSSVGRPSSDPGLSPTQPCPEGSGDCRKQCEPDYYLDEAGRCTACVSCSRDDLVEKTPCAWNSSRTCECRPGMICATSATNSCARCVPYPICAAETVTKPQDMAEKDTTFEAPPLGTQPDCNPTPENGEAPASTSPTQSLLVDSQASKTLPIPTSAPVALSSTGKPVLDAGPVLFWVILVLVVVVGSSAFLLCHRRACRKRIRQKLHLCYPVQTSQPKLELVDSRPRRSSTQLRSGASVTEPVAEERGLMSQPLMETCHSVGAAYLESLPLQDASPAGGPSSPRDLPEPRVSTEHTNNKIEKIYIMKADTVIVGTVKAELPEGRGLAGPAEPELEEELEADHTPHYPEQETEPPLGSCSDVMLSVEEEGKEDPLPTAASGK

CD30 (TNFRSF8) [2] = target: T1, CD30 (TNFRSF8); test: flow cytometry; conditions: 200 nM probe, DPBS, RT, 30 min; binds CD30+ K299, SUDHL-1, HDLM2; no binding to CD30-negative NK92, U937, Maver-1, Jeko-1; protein on the cell surface; label: 5'-Cy3; single-stranded DNA

Sequence	functional effect of the aptamer (CD30 (TNFRSF8) [1])	binding result (CD30 (TNFRSF8) [2])
ACTGGGCGAAACAAGTCTATTGACTATGAGC [Apt-2×C18 (CD30 aptamer with dual C18 hydrocarbon anchor)]	active	
ACTGGGCGAAACAAGTCTATTGACTATGAGC [CD30-specific ssDNA aptamer]		binds

For some assays here: Where cells or extracts were used, other partners may take part. Protein sequences can lack the tags named with them.
